# Laboratory results from the odorant receptor screen of Mainland et al. (2015).
# Several values for one entry are separate records, joined by “and”; a condition that tells them apart may be missing. Equal entries are not always repeated. Some of the results follow. Single wells; the ratio to wells without odorant was worked out here, and repeats agree poorly.
# Experiments:
# Assay in all cases: odorant receptor activation (CRE luciferase / Renilla) (fold of no-odor wells); higher = more activation
# Details in all cases: 100 µM
# [1] = test system: OR2Z1 clone 1296
# [2] = test system: OR3A1 clone 1288
# [3] = test system: OR3A2 clone 1286
# [4] = test system: OR3A3 clone 1549
# [5] = test system: OR3A4 I42V/S86R/E103Q/I120V/P168T/N175S clone 1550
# [6] = test system: OR4A15 A257V clone 1216
# [7] = test system: OR4A16 clone 1518
# [8] = test system: OR4A4 clone 1134
# [9] = test system: OR4A47 I104L/V145M clone 1579
# [10] = test system: OR4A5 clone 1637
SMILES,odorant receptor activation [1],odorant receptor activation [2],odorant receptor activation [3],odorant receptor activation [4],odorant receptor activation [5],odorant receptor activation [6],odorant receptor activation [7],odorant receptor activation [8],odorant receptor activation [9],odorant receptor activation [10]
CCC1(O)C2(C)CCC(C2)C1(C)C (centres undefined) [2-ethylfenchol],0.731,0.733,0.726,0.63,0.653,0.686,1.17,1.14,0.65,0.829
CC1COCc2cc3c(cc21)C(C)(C)C(C)C3(C)C (centres undefined) [galaxolide],0.849 and 1.31,1.45 and 2.83,1.29 and 1.28,1.44 and 2.03,0.359 and 0.977,0.874,6.7 and 5.61,0.685,–,–
COc1cc(C)ccc1O [2-methoxy-4-methylphenol],0.842,0.666,0.86,0.755,0.667,0.843,0.808,1.7,0.791,1.22
CCCCCCOC(=O)CCC [hexyl butyrate],0.796 and 1.15,1.2 and 0.942,1.11 and 1.27,0.72,0.839,0.983,1.16 and 1.07,0.911,0.791,0.908
CC(=O)OC1CC2CCC1(C)C2(C)C (centres undefined) [isobornyl acetate],0.898 and 1.24,1.22 and 1.09,1.56 and 1.14,0.889,0.773,1.26,1.05 and 0.995,0.939,1.09,0.981
CC(C)C=O [isobutyraldehyde],1.03 and 0.787,1.34 and 0.977,1.49 and 1.55,0.683,0.708,0.867,0.931 and 0.904,0.79,0.96,0.928
CC12CCC(CC1)C(C)(C)O2 [cineole],0.898,0.735,0.795,0.891,1.08,0.857,0.773,0.888,1.09,0.885
CCCCCCCC=O [octyl aldehyde],0.728,1.06,0.957,0.841,0.873,1.02,1.01,0.977,0.826,0.841
COc1ccccc1O [guaiacol],0.916 and 1.25,1.28 and 0.932,1.21 and 1.16,0.621,0.731,0.945,0.692 and 1.11,0.74,0.665,0.915
CC(C)CCC(=O)O [4-methylvaleric acid],1.09,0.881,0.897,0.715,0.669,0.996,0.902,1.33,0.772,1.01
CCCCCCCC=CC=O [2-decenal],0.962,1.22,1.01,1.22,0.985,0.959,2.04,1.22,0.984,1.34
CCCCCCCCCCC=O [undecanal],0.943,0.902,0.881,0.731,0.785,0.954,0.947,1.08,0.738,0.531
CC1=CCC(C(C)(C)O)CC1 (centres undefined) [terpineol],0.879,0.781,0.786,0.667,0.684,1.16,0.831,1.48,0.901,0.549
C=CCc1ccc(OC)c(OC)c1 [eugenol methyl ether],1.07,1.52,1.12,0.796,0.626,1.54,1.32,1.58,0.764,1.01
O=C1CCCCCCCCCCCC(=O)OCCO1 [ethylene brassylate],1.1,1.3,1.1,2.44,1.66,1.92,1.19,1.85,0.825,1.53
CCCCCCCCC=O [nonyl aldehyde],0.632,1.01,1.34,1.3,1.22,0.999,1.01,1.01,0.968,0.706
C=CCc1ccc(OC(C)=O)c(OC)c1 [eugenol acetate],1.29,1.68,1.36,1.7,1.91,1.82,1.72,2.63,1.82,1.78
CC(C)C(=O)O [isobutyric acid],1.1 and 0.943,1.29 and 0.861,1.25 and 1.3,0.789,0.852,0.917,1.07 and 0.738,0.845,0.993,0.822
CCCCCC(=O)O [caproic acid],0.87,1.02,0.623,0.943,0.917,0.952,0.843,1.07,0.862,0.792

SMILES,odorant receptor activation [1],odorant receptor activation [2],odorant receptor activation [3],odorant receptor activation [4],odorant receptor activation [5],odorant receptor activation [6],odorant receptor activation [7],odorant receptor activation [8],odorant receptor activation [9],odorant receptor activation [10]
CC(=O)OC(C)(C)C1CC=C(C)CC1 (centres undefined) [terpinyl acetate],0.809,0.792,0.699,0.731,0.805,1.24,0.828,1.39,0.681,0.576
CC/C=C\CCO [cis-3-hexen-1-ol],0.911,0.994,0.88,1.03,1.1,0.959,0.974,0.891,0.964,1.07
CC=Cc1ccc(O)c(OC)c1 [isoeugenol],0.988 and 0.951,1.17 and 1.56,1.28 and 1.5,4.09,3.49,1.15,1.72 and 2.35,0.872,4.76,5.63
CCCCCOC(C)=O [n-amyl acetate],0.474,0.876,1.15,1.04,0.979,0.69,1.04 and 0.85,0.474,0.827,1.26
c1cnccn1 [pyrazine],0.819,0.864,0.749,1,0.888,0.9,0.722,1.18,0.819,0.643
COC(=O)c1ccccc1O [methyl salicylate],0.597,1.06,0.991,0.774,0.919,0.771,0.918,0.741,0.993,0.757
CCCC(=O)O [butyric acid],0.855,0.976,0.706,1.05,1.3,1.07,1.25,1.09,0.876,0.801
C=C(C)C1CC=C(C)C(=O)C1 (centres undefined) [r-carvone],0.716,0.691,0.746,1.01,0.952,1.16,0.749,1.34,0.772,0.677
O=C1CCCCCCCCCCCCCCO1 [pentadecalactone],0.672,0.761,0.757,0.863,0.824,0.969,0.688,0.926,0.836,0.702
"CC1CCC(C(C)C)C(O)C1 (single isomer, unassigned; (+)) [(+)-menthol]",0.831,0.621,0.801,0.794,0.924,1.02,1.1,1.12,1.07,1.11
CC(=O)OCC=C(C)CCC=C(C)C [geranyl acetate],0.736 and 0.861,1.92 and 1.32,1.34 and 1.06,1.27,1.01,1.06,0.851 and 1.49,0.881,1.14,1.57
CC(=O)c1ccccc1 [acetophenone],1.75,3.27,2.35,–,–,1.15,1.04 and 0.901,1.14,–,–
CC12C=CCC1C1CCC3=CC(=O)CCC3(C)C1CC2 (centres undefined) [androstadienone],0.875 and 1.03,1.39 and 0.864,1.46 and 1.4,–,–,0.942,0.918 and 1.59,0.764,–,–
C=CCSCC=C [diallyl sulfide],0.768,1.02,0.864,1.07,0.844,1.43,1.27,1.16,0.591,1.02
C=CC(C)(O)CCC=C(C)C (centres undefined) [linalool],0.648,0.819,1.06,0.736,0.746,0.926,0.951,0.99,1.06,0.995
CCCCCCCCOC(C)=O [octyl acetate],0.616,1.03,1.09,0.953,0.754,0.984,0.941,0.924,0.95,0.83
CC1=NC(C)SC1C (centres undefined),2.13,1.12,1.09,–,–,1.01,1.17 and 1.01,0.583,–,–
CCCCCC(C)=O [2-heptanone],0.799,1.91,1.04,–,–,0.947,1.32 and 0.6,0.866,–,–
COC(=O)c1ccccc1 [methyl benzoate],0.607,1.33,1.43,–,–,0.741,0.603 and 1.19,0.721,–,–

# 3 entries from above, bar-delimited.
SMILES | odorant receptor activation [1] | odorant receptor activation [2] | odorant receptor activation [3] | odorant receptor activation [4] | odorant receptor activation [5] | odorant receptor activation [6] | odorant receptor activation [7] | odorant receptor activation [8] | odorant receptor activation [9] | odorant receptor activation [10]
CC(C)CCC(=O)O [4-methylvaleric acid] | 1.09 | 0.881 | 0.897 | 0.715 | 0.669 | 0.996 | 0.902 | 1.33 | 0.772 | 1.01
CCCCCCCC=CC=O [2-decenal] | 0.962 | 1.22 | 1.01 | 1.22 | 0.985 | 0.959 | 2.04 | 1.22 | 0.984 | 1.34
CCCCCCCCCCC=O [undecanal] | 0.943 | 0.902 | 0.881 | 0.731 | 0.785 | 0.954 | 0.947 | 1.08 | 0.738 | 0.531

# (list continues)

SMILES,odorant receptor activation [1],odorant receptor activation [2],odorant receptor activation [3],odorant receptor activation [4],odorant receptor activation [5],odorant receptor activation [6],odorant receptor activation [7],odorant receptor activation [8],odorant receptor activation [9],odorant receptor activation [10]
CC(C)(C)c1ccc(CCC=O)cc1 [bourgeonal],0.877,0.924,0.732,–,–,0.715,0.794,0.893,–,–
CC12C=CCC1C1CCC3CC(=O)CCC3(C)C1CC2 (centres undefined) [androstenone],0.947,1.21,1.31,–,–,5.26,1.18,4.4,–,–
"CC1CCC(C(C)C)C(O)C1 (single isomer, unassigned; (-)) [(-)-menthol]",0.587,0.542,0.821,0.873,0.729,1.17,3.9,1.68,1.02,1.25
CCCCCCCCCC=O [decyl aldehyde],0.838,1.19,0.978,1.04,0.913,1.33,0.922,1.52,0.726,1.72
O=CCc1ccccc1 [phenyl acetaldehyde],1.11,1.35,0.744,1.02,0.913,1.12,1.02,1.49,1.78,1.67
COc1cc(C=O)ccc1O [vanillin],1.13,0.963,0.8,1.08,1.28,0.915,0.974,1.37,0.434,0.864
CCCCCCCOC(C)=O [heptyl acetate],0.866 and 0.825,1.37 and 1.27,1.46 and 1.06,0.696,0.642,0.928,0.72 and 1.25,0.931,0.648,0.678
CC(C)=CCCC(C)=CC=O [citral],0.941,1.25,1.02,1.3,1.01,0.858,0.903,0.863,0.736,4.19
C=C(C)C1CC=CCC1 (centres undefined) [r-limonene],–,1.24 and 0.712,0.892 and 0.906,1.12,0.971,1.11 and 0.541,0.837 and 0.918 and 0.871,–,1.15,1.1
C=CCc1ccc(O)c(OC)c1 [eugenol],0.84 and 1,2.88 and 1.63,–,1.14,1.05,2.21 and 1.7,1.36 and 1.16 and 1.2,3.01 and 1.67,1.06,1.25
c1ccc(Oc2ccccc2)cc1 [diphenyl ether],0.851,1.01,0.865,0.836,0.909,1.14,1.15,1.08,0.65,1.1
C=C(C)C1CCC2=CC(=O)CC(C)C2(C)C1 (centres undefined) [amyl laurate],–,–,–,1.44,2.23,–,–,–,1.01,1.2
CC(C)CC(=O)O [isovaleric acid],0.461,0.866,0.824,0.878,0.941,1.33,0.825,1.12,1.17,1.02
CC(=O)C(C)=O [diacetyl],0.953,1.11,0.883,0.928,0.815,1.37,1.2,1.2,0.714,0.872
CCCCCCC=O [heptaldehyde],0.485 and 0.79 and 1.13,1.03 and 1.15 and 0.833,0.92 and 1.15 and 1.03,0.711,0.805,0.425 and 1.12,–,–,0.587,0.888
CC12CCC(C1)C(C)(C)C2=O (centres undefined) [fenchone],0.772,1.12,0.938,0.927,0.695,1.07,0.854,1.04,0.788,1.04
O=C1CCCCC1 [Cyclohexanone],0.384,0.985,1.04,–,–,0.831,0.761 and 0.856,0.556,–,–
CCCCO [1-butanol],0.634,0.828,0.578,0.802,0.872,1.13,1.09,1.09,0.875,1.11
CC(C)(O)CCCC1=CCC(C=O)CC1 (centres undefined) [lyral],–,–,–,0.802,0.983,–,–,–,0.823,1.38
